Earlier results, collected in patent publication US20180008587A1, “THIOHYDANTOIN ANDROGEN RECEPTOR ANTAGONISTS FOR THE TREATMENT OF CANCER” (Jaressen Pharmaceutica NV, priority 2016, published 2018).
At least one compound was matched to its structure with a doubt left.

Tested on: prostate cancer cells overexpressing AR
Conditions: cells castration resistant via overexpression of AR; cited from earlier work

SMILES: CC(O)(CS(=O)(=O)c1ccc(F)cc1)C(=O)Nc1ccc(C#N)c(C(F)(F)F)c1 (stereo not shown) [bicalutamide]
- antagonist/agonist profile: mixed antagonist/agonist profile
